Data as given in PubChem BioAssay AID1259308 (NCATS, 2017).

- Aim: 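Candidate targets for better recombinant protein yield in mammalian cells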 (primary screen)
- System: human HEK293 embryonic kidney cells stably expressing firefly luciferase (HEK-CMV-Luc2-Hygro)
- Reagents: single siRNA against human genes, 0.8 pmol siRNA per well
- Time to read-out: 72 h
- Read-out: 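Reporter luminescence and viable-cell signal on separate replicate plates, given as percent of non-targeting control and median/MAD z-scores, plus per-cell luciferase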
- Direction: total luciferase, z-score and total luciferase, % of control: higher = more reporter protein produced; luciferase per cell, z-score: higher = more reporter output per viable cell; viable cells, % of control: higher = more viable cells
- Active means: 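Active when the median/MAD z-score for overall luciferase is greater than 3; a gene was taken forward for validation with new siRNAs if at least two of its three siRNAs passed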
- Calls: active = raised luciferase; inactive = no rise
The whole screen tested about 59,000 reagents; this is a random part of them. In the full data, about 1,510 (2.6%) are marked active. 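Calls use total luciferase alone and ignore viability, so some active siRNAs may act by altering cell number.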 Entries without a mark were called inactive. Reagents against one gene are numbered here. No sequences are given here.

no.	gene knocked down	reagent	total luciferase, z-score	total luciferase, % of control	luciferase per cell, z-score	viable cells, % of control
1	TYW1	1	-1.75	47	-1.13	70.6
2	TYW1	2	-1.98	42.5	-2.78	98.8
3	TYW1	3	1.46	111	0.664	104
4	GOLGA3	1	0.415	90.1	0.752	82.6
5	GOLGA3	2	-0.11	79.7	-0.326	97
6	GOLGA3	3	-0.268	76.5	0.999	65.8
7	MCOLN1	1	0.25	86.9	-0.423	109
8	MCOLN1	2	2.06	123	0.669	115
9	MCOLN1	3	0.216	86.2	0.809	77.8
10	PFKL	1	2.09	123	1.93	83.1
11	PFKL	2	0.618	94.2	0.781	85.7
12	PFKL	3	-0.823	65.5	-0.598	85.7
13	CCDC13	1	0.325	88.4	0.431	88.1
14	CCDC13	2	-2.27	36.7	-2.83	86.3
15	CCDC13	3	1.84	119	1.28	94.7
16	PRKD1	1	0.0797	83.5	0.163	89.3
17	PRKD1	2	-0.587	70.2	0.0736	76.9
18	PRKD1	3	-1.37	54.6	-1.59	92.6
19	GNG13	1	0.334	88.5	0.388	89.3
20	GNG13	2	0.221	86.3	0.661	81
21	GNG13	3	-0.584	70.3	0.00356	78.4

Laid out differently: results already given.
{"gene knocked down": "MCOLN1", "reagent": 1, "total luciferase, z-score": 0.25, "total luciferase, % of control": 86.9, "luciferase per cell, z-score": -0.423, "viable cells, % of control": 109}
{"gene knocked down": "MCOLN1", "reagent": 2, "total luciferase, z-score": 2.06, "total luciferase, % of control": 123, "luciferase per cell, z-score": 0.669, "viable cells, % of control": 115}
{"gene knocked down": "MCOLN1", "reagent": 3, "total luciferase, z-score": 0.216, "total luciferase, % of control": 86.2, "luciferase per cell, z-score": 0.809, "viable cells, % of control": 77.8}

More reagents follow.
no.	gene knocked down	reagent	total luciferase, z-score	total luciferase, % of control	luciferase per cell, z-score	viable cells, % of control
22	CDCP1	1	-2.39	34.3	-2.43	72.7
23	CDCP1	2	-0.237	77.2	-0.68	103
24	CDCP1	3	-0.324	75.5	0.0199	83.9
25	TMEM161A	1	1.84	118	1.26	95
26	TMEM161A	2	-1.36	54.9	-1.55	92.4
27	TMEM161A	3	-1.13	59.4	-0.876	83.5
28	GK2	1	2.16	125	2.04	81.6
29	GK2	2	1.41	110	0.757	101
30	GK2	3	-0.298	76	-0.579	98.9
31	SPRED3	1	0.995	102	0.726	93.8
32	SPRED3	2	0.769	97.2	1.28	77.4
33	SPRED3	3	0.906	99.9	1.49	75.4
34	DHX38	1	2.17	125	1.87	85.4
35	DHX38	2	0.00567	82	0.218	86.5
36	DHX38	3	0.413	90.1	1.53	67.3
37	NCOR1P1	1	0.481	91.4	0.684	85.3
38	NCOR1P1	2	0.902	99.8	0.802	90.3
39	NCOR1P1	3	-0.809	65.8	-0.499	83.9
40	GCH1	1	0.337	88.6	-0.651	118
41	GCH1	2	-0.903	63.9	-1.36	102
42	GCH1	3	-0.934	63.3	-0.458	79.8
43	AIP	1	0.375	89.3	0.972	77.3
44	AIP	2	0.355	89	0.0365	98.4
45	AIP	3	3.46 (active)	151	3.14	73.8
46	HNRNPK	1	-0.318	75.6	0.412	75.7
47	HNRNPK	2	0.117	84.2	0.577	80.8
48	HNRNPK	3	-0.137	79.2	-0.109	91
49	NPVF	1	-0.375	74.4	-0.216	88
50	NPVF	2	-0.924	63.5	-1.1	94.9
51	NPVF	3	-0.822	65.5	-0.109	75.4
52	VEGFA	1	0.2	85.9	0.75	78.8
53	VEGFA	2	0.485	91.5	0.0703	100
54	VEGFA	3	0.233	86.5	0.251	90.5
55	MAP2	1	-0.00818	81.7	0.0609	89.9
56	MAP2	2	0.909	100	1.11	83.3
57	MAP2	3	0.0102	82.1	-0.927	117
